Measurements published in patent US20140228279A1, “CATIONIC PEPTIDOPOLYSACCHARIDES WITH EXCELLENT BROAD- SPECTRUM ANTIMICROBIAL ACTIVITIES AND HIGH SELECTIVITY” (priority 2011, published 2014).
Where two headings read alike, the source gives them in different places.

Experiments:
[1] = system: human red blood cells; conditions: comparator agents (#3A-#6E), previously reported; cited from earlier work
[2] = system: human red blood cells; assay: Hemolysis assay; format: cell-based; conditions: E. coli over human red blood cells
Protocol: Fresh human blood (5 ml) was collected from a healthy donor. Erythrocytes were separated by centrifugation at 1000 rpm for 10 min, washed three times with Tris buffer (10 mM Tris, 150 mM NaCl, pH 7.2) and diluted to final concentration (5%, v/v). 50 μl of antimicrobial solution at different concentrations mixed with 50 μl erythrocytes stock were added to a 96-well microplate and incubated for 1 h at 37° C. with 150 rpm shaking. The microplate were centrifuged at 1,000 rpm for 10 min. 80 μl aliquots of the supernatant were then transferred to a new 96-well microplate and diluted with another 80 μl of Tris buffer. Hemolysis was measured as the absorbance at 540 nm with a microplate reader (BIO-RAD, US). Complete hemolysis was determined in Tris buffer plus 0.1% Triton x-100 as positive control, while Tris buffer was used as negative control. The percentage of hemolysis (H) was calculated using the following equation: Hemolysis=[(Op−Ob)/(Ot−Ob)]×100%, where Op is the density for a given antimicrobial agent concentration, Ob is the density for the buffer, and Ot is the density for the Triton x-100 positive control.

Compound	Selectivity: HC50/MIC(E. coli) [1]	Selectivity: HC50/MIC(E. coli) [2]
CC[C@H](C)[C@H](NC(=O)CN)C(=O)NCC(=O)N[C@@H](C)C(=O)N[C@H](C(=O)N[C@@H](CC(C)C)C(=O)N[C@@H](CCCCN)C(=O)N[C@H](C(=O)N[C@@H](CC(C)C)C(=O)N[C@H](C(=O)N[C@H](C(=O)NCC(=O)N[C@@H](CC(C)C)C(=O)N1CCC[C@H]1C(=O)N[C@@H](C)C(=O)N[C@@H](CC(C)C)C(=O)N[C@H](C(=O)N[C@@H](CO)C(=O)N[C@@H](Cc1c[nH]c2ccccc12)C(=O)N[C@H](C(=O)N[C@@H](CCCCN)C(=O)N[C@@H](CCCNC(=N)N)C(=O)N[C@@H](CCCCN)C(=O)N[C@@H](CCCNC(=N)N)C(=O)N[C@@H](CCC(N)=O)C(=O)N[C@@H](CCC(N)=O)C(N)=O)[C@@H](C)CC)[C@@H](C)CC)[C@@H](C)O)[C@@H](C)O)C(C)C)C(C)C [Melittin]	0.15	
chitosan-graft-poly(lysine-ran-phenylalanine) [CS-g-K8F8]		<5
chitosan-graft-poly(lysine-ran-phenylalanine) [CS-g-K12.5F12.5]		12
